The supplement of paper PMC10849652
This is one part of the list.

The chains behind the UniProt entries cited, without tags or fusion partners. Where a name states a change or a piece, a line headed by the entry shows the natural chain unless it says otherwise.
UniProt P35659: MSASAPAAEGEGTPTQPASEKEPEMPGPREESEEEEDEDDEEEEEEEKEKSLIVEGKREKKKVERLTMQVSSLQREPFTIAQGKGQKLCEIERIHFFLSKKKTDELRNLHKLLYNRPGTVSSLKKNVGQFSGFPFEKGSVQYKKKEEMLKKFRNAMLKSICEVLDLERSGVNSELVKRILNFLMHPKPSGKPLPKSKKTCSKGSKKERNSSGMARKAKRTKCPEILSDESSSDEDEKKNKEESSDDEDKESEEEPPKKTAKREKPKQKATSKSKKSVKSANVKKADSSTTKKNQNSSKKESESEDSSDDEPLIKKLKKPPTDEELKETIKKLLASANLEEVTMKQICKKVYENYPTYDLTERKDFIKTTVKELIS
UniProt O00571: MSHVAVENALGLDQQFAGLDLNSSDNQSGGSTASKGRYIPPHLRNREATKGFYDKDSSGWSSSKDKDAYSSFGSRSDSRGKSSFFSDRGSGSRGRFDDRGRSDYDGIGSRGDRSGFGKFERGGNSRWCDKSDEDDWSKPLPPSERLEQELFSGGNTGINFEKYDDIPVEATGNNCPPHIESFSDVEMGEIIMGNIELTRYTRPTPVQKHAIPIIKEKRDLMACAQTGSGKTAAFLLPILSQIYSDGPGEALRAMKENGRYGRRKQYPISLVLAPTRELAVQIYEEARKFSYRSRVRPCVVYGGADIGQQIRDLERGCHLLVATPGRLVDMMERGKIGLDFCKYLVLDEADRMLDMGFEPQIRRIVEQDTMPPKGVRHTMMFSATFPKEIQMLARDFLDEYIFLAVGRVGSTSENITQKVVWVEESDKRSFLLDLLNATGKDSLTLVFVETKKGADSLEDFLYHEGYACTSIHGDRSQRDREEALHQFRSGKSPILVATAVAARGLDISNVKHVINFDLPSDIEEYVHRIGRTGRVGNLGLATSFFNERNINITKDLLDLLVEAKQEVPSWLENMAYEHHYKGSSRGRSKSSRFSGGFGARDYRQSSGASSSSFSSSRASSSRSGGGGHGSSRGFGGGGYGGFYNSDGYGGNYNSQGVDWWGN
UniProt Q5TDH0: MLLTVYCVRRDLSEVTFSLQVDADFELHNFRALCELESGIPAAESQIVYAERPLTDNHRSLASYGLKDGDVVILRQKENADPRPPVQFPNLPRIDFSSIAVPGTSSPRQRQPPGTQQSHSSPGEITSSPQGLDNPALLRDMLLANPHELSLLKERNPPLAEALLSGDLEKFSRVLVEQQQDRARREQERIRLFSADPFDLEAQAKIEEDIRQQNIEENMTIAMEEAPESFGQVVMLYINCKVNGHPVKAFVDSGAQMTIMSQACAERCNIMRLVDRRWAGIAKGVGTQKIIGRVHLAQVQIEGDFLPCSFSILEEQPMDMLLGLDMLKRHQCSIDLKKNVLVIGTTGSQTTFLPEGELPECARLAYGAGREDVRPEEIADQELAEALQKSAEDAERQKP
UniProt Q16854: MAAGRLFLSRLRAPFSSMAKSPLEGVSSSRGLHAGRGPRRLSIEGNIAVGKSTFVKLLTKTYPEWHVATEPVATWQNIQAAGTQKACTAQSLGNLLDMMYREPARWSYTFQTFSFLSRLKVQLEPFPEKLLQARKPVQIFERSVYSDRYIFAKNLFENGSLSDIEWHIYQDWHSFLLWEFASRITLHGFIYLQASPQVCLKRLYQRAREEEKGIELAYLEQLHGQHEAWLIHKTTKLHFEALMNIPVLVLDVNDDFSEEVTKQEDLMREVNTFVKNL
UniProt Q99766: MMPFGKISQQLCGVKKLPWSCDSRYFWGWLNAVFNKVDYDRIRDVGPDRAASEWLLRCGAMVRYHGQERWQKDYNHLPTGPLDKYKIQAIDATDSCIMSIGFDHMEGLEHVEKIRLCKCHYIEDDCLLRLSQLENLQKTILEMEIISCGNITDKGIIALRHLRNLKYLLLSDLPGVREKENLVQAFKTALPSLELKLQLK
UniProt Q14562: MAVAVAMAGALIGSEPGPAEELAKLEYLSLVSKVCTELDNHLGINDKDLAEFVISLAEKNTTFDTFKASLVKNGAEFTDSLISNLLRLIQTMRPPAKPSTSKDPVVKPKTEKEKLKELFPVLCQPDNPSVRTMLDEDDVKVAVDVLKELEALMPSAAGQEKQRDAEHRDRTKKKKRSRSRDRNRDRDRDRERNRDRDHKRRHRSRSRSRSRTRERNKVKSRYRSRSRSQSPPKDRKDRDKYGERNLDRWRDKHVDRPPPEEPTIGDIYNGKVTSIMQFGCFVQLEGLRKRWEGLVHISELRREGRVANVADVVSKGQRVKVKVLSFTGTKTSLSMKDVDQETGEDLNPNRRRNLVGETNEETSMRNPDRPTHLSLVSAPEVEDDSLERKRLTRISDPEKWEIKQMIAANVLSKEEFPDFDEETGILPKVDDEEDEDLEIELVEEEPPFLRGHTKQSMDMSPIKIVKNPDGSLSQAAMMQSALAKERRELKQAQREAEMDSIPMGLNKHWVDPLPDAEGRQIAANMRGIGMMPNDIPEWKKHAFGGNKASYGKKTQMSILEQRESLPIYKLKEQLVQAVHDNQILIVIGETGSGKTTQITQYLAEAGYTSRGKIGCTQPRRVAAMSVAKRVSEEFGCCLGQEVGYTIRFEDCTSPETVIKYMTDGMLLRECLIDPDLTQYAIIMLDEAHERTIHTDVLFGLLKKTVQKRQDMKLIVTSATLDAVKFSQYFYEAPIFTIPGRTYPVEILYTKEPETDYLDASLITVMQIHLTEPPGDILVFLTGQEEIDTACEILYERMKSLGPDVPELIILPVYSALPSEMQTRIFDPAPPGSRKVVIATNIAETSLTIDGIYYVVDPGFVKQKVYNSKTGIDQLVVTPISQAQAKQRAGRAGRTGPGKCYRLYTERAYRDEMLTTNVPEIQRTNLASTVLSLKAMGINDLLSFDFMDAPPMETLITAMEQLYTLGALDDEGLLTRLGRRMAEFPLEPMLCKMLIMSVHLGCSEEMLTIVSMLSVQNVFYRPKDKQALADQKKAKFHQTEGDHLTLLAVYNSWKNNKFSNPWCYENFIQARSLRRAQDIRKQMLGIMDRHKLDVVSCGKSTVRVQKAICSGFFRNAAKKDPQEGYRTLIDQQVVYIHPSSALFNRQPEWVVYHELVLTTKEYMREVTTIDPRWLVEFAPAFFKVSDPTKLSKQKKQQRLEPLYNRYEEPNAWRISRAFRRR
UniProt P36957: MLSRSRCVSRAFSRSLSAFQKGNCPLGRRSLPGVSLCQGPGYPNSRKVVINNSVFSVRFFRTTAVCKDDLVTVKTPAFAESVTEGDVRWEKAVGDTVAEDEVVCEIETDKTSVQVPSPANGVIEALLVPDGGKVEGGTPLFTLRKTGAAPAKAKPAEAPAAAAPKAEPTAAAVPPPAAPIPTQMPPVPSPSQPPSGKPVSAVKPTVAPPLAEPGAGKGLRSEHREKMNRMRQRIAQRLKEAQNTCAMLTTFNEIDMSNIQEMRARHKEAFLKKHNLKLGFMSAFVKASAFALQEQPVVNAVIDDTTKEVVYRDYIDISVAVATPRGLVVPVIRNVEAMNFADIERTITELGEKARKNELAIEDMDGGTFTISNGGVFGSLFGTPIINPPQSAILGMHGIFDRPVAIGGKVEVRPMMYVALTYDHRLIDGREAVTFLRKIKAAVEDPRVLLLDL
UniProt Q9Y315: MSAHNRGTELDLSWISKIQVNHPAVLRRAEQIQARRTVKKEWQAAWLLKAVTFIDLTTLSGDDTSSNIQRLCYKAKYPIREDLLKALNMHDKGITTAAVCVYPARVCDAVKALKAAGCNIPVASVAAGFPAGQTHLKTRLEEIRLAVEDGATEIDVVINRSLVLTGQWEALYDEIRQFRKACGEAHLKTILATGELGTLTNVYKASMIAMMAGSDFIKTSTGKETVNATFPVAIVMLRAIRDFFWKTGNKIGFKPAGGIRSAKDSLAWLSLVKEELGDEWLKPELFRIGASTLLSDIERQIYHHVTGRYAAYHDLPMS
UniProt P30046: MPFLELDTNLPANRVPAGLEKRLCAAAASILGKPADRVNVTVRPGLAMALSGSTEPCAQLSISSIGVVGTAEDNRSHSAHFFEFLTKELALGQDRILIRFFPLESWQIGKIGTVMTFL
UniProt O43583: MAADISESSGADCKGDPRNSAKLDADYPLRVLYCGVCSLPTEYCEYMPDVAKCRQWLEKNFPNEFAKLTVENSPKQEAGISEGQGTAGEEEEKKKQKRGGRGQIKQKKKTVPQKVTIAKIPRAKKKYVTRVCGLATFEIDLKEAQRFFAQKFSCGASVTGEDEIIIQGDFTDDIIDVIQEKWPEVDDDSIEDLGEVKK
UniProt O94830: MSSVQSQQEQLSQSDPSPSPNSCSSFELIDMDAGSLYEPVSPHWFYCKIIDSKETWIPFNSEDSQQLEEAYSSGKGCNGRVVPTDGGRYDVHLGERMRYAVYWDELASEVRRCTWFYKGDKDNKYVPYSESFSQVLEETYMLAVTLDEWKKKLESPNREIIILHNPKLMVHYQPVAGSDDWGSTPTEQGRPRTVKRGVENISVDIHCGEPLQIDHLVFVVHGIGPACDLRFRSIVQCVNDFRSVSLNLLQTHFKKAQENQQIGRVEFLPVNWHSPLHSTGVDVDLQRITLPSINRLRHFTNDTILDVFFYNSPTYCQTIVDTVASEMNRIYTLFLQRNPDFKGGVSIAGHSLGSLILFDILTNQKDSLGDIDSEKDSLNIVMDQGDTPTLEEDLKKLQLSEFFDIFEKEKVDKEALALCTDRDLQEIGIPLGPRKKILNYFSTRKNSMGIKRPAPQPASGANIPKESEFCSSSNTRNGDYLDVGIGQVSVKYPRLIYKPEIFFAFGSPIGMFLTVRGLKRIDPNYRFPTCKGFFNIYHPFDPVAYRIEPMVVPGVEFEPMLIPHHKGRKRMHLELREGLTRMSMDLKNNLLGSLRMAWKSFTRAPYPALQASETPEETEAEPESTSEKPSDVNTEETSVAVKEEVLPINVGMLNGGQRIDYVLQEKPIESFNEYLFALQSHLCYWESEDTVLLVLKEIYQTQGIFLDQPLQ
UniProt Q9Y6V7: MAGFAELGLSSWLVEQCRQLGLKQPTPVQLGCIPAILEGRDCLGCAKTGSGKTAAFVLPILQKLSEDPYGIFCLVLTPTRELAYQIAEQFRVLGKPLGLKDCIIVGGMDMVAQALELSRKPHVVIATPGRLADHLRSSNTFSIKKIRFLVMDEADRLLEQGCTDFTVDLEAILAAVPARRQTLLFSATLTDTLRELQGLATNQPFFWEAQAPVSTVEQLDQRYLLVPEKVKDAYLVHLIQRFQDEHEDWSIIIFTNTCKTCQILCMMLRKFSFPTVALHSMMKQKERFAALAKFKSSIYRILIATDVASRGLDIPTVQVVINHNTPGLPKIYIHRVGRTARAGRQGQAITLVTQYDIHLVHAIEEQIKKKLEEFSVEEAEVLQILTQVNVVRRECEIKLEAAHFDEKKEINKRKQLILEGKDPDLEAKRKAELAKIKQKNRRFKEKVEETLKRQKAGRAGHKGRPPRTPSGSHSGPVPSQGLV
UniProt Q13574: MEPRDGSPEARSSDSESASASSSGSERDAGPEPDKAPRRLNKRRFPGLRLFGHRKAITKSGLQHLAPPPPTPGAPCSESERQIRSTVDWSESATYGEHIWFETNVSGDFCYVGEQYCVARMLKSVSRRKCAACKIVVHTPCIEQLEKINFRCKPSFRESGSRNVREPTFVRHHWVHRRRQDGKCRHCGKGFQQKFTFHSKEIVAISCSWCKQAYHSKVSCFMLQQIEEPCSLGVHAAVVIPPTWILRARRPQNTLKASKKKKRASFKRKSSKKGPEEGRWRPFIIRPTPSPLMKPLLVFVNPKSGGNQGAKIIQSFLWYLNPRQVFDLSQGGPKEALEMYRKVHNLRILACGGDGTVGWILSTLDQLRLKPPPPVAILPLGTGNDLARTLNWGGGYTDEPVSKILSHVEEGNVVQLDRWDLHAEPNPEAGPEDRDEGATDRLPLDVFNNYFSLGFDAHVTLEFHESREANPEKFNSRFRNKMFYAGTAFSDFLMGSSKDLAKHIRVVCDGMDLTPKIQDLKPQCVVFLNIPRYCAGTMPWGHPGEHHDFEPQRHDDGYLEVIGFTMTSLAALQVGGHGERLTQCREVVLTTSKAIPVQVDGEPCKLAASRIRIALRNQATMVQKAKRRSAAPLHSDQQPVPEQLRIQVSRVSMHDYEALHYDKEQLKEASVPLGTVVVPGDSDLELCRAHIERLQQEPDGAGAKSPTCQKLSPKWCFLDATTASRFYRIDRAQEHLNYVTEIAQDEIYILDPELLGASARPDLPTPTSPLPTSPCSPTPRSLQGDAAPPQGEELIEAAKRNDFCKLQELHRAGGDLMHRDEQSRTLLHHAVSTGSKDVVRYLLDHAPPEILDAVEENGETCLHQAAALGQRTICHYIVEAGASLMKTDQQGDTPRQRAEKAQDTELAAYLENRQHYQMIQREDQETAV
UniProt Q9NR28: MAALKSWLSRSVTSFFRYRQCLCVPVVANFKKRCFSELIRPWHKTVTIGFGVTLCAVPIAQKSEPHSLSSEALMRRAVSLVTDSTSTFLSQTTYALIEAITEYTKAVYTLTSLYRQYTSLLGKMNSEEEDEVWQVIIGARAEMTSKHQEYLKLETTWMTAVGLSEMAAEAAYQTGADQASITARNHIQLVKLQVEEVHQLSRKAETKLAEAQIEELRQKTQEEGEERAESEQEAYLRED

What was measured:
Test in all cases: log2 fold change, soluble protein after heating vs DMSO (PISA); higher = thermal stabilisation; K562 cells, 10 uM, 30 min; active = over 0.2 and 3.5 SD of the protein, either way, in both replicates (recomputed)
[1] = compound: CC1=C(C=C(C=C1)NC(=O)C2=CC(=CC=C2)C(C)(C)C#N)NC3=CC4=C(C=C3)N=CN(C4=O)C
Procedure, shortened: (§1)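 Soluble protein was defined as the supernatant after 21,000xg for 90 min. It came from K562 cells at 2×10^6 cells/mL given 10 μM compound for 30 min, heated in aliquots for 3 min across 48°C-58°C, pooled, and extracted in PBS with 0.5% NP-40 at 4°C, and was quantified by TMTpro 16plex LC-MS/MS with equalised channel sums. Thermal stability against control samples, from duplicates, is reported as log2 fold change.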

[2] = compound: CC1=C(C=C(C=C1)NC(=O)C2=CC(=CC=C2)N(C)C)NC(=O)C3=CC=C(C=C3)O
Procedure, shortened: as §1

[3] = compound: CC1=CC=C(C=C1)SC2=C3C=C(SC3=CN=C2)C(=O)N
Procedure, shortened: as §1

[4] = compound: CC1=NC(=CC=C1)C2=C(N=C(N2)C(C)(C)C)C3=CC4=NC=CN=C4C=C3
Procedure, shortened: as §1

[5] = compound: CCCCN(Cc1ccc(C(=O)NO)cc1)C(=O)Nc1ccccc1 [Nexturastat A]
Procedure, shortened: as §1

[6] = compound: CCCS(=O)(=O)Nc1ccc(F)c(C(=O)c2c[nH]c3ncc(-c4ccc(Cl)cc4)cc23)c1F [vemurafenib]
Procedure, shortened: as §1

[7] = compound: CCCS(=O)(=O)Nc1ccc(F)c(C(=O)c2c[nH]c3ncc(Cl)cc23)c1F
Procedure, shortened: as §1

[8] = compound: CCCc1cc(C)[nH]c(=O)c1CNC(=O)c1cc(-c2ccnc(N3CCN(C)CC3)c2)cc2c1cnn2C(C)C
Procedure, shortened: as §1

[9] = compound: CCN(CC)Cc1ccc2cc(COC(=O)Nc3ccc(C(=O)NO)cc3)ccc2c1 [givinostat]
Procedure, shortened: as §1

[10] = compound: CCN(CCCOc1ccc2c(Nc3cc(CC(=O)Nc4cccc(F)c4)[nH]n3)ncnc2c1)CCOP(=O)(O)O [barasertib]
Procedure, shortened: as §1

[11] = compound: CC[C@@H]1C(=O)N(C)c2cnc(Nc3ccc(C(=O)NC4CCN(C)CC4)cc3OC)nc2N1C1CCCC1
Procedure, shortened: as §1

[12] = compound: CC[C@@H]1C(=O)N(C)c2cnc(Nc3ccc(C(=O)N[C@H]4CC[C@H](N5CCN(CC6CC6)CC5)CC4)cc3OC)nc2N1C(C)C [volasertib]
Procedure, shortened: as §1

[13] = compound: CC[C@H](C)N1C=C(C2=C(C=C(C=C21)C3=CN=C(C=C3)N4CCNCC4)C(=O)NCC5=C(C=C(NC5=O)C)C)C
Procedure, shortened: as §1

[14] = compound: CC[C@H](C)[C@@H](C(=O)N[C@@H]([C@@H](C)O)C(=O)N[C@@H](CC(C)C)C(=O)[C@]1(CO1)C)NC(=O)[C@H]([C@@H](C)CC)N(C)C(=O)C [epoxomicin]
Procedure, shortened: as §1

[15] = compound: CCn1c(C(=O)N(C2CC2)C2CC2)cc2c3c(ncn3C)c(Nc3cc(C)n(C)n3)nc21
Procedure, shortened: as §1

[16] = compound: CCn1cc(-c2ccnc3[nH]c(-c4cccc(CN(C)C)c4)cc23)c(-c2ccc(NC(=O)N(C)C)cc2)n1
Procedure, shortened: as §1

[17] = compound: CN(C)CC(=O)Nc1ccc2[nH]c(=O)c3ccccc3c2c1
Procedure, shortened: as §1

[18] = compound: CN(CCOC1=CC=C(C=C1)C[C@H]2C(=O)NC(=O)S2)C3=CC=CC=N3 (racemic) [rosiglitazone]
Procedure, shortened: as §1

[19] = compound: CN1C2=C(C3=C1C(=O)N(N=C3)CC4=CC(=CC=C4)N)SC(=C2)S(=O)C
Procedure, shortened: as §1

[20] = compound: CN1CCC(CNc2ccc3ncc(-c4cccc(OC(F)(F)F)c4)n3n2)CC1
Procedure, shortened: as §1

Measured: log2 fold change

DEK (UniProt P35659)
inactive: [1] 0.057 | [2] -0.038 | [3] 0.067 | [4] 0.095 | [5] -0.011 | [6] 0.089 | [7] 0.129 | [8] 0.035 | [9] 0.026 | [10] 0.011 | [11] -0.057 | [12] -0.143 | [13] 0.102 | [14] 0.069 | [15] -0.047 | [16] -0.045 | [17] 0.067 | [18] 0.04 | [19] 0.019 | [20] -0.153

DDX3X (UniProt O00571)
inactive: [1] 0.088 | [2] 0.124 | [3] -0.001 | [4] -0.099 | [5] 0.656 | [6] -0.051 | [7] 0.034 | [8] 0.212 | [9] 0.217 | [10] 0.037 | [11] 0.176 | [12] -0.05 | [13] 0.1 | [14] -0.455 | [15] 0.001 | [16] 0.215 | [17] 0.003 | [18] -0.047 | [19] 0.592 | [20] 0.096

DDI2 isoform 3 (UniProt Q5TDH0)
inactive: [1] -0.004 | [2] -0.012 | [3] -0.008 | [4] 0.008 | [5] 0.004 | [6] 0.032 | [7] 0.012 | [8] 0.001 | [9] -0.013 | [10] 0.008 | [11] -0.004 | [12] -0.006 | [13] 0.007 | [14] -0.032 | [15] 0.024 | [16] -0.085 | [17] -0.009 | [18] 0.02 | [19] -0.075 | [20] 0.028

DGUOK (UniProt Q16854)
inactive: [1] 0.005 | [2] 0.002 | [3] -0.012 | [4] 0.021 | [5] 0.043 | [6] 0.026 | [7] -0.021 | [8] -0.028 | [9] -0.011 | [10] 0.018 | [11] 0.012 | [12] 0.129 | [13] -0.056 | [14] -0.073 | [15] 0.018 | [16] 0.069 | [17] -0.006 | [18] 0.007 | [19] -0.091 | [20] 0.037

DMAC2L (UniProt Q99766)
inactive: [1] -0.082 | [2] 0.029 | [3] -0.031 | [4] 0.005 | [5] 0.01 | [6] -0.046 | [7] -0.013 | [8] -0.017 | [9] 0 | [10] 0.013 | [11] 0.025 | [12] 0.008 | [13] -0.003 | [14] -0.012 | [15] -0.039 | [16] -0.017 | [17] 0.013 | [18] -0.007 | [19] -0.02 | [20] 0.252

DHX8 (UniProt Q14562)
inactive: [1] -0.051 | [2] -0.063 | [3] -0.091 | [4] -0.045 | [5] -0.141 | [6] -0.2 | [7] -0.191 | [8] -0.083 | [9] -0.003 | [10] -0.013 | [11] 0.01 | [12] -0.003 | [13] -0.079 | [14] -0.033 | [15] -0.03 | [16] 0.078 | [17] -0.07 | [18] 0.058 | [19] 0.004 | [20] -0.212

DLST (UniProt P36957)
inactive: [1] -0.013 | [2] 0.011 | [3] -0.027 | [4] -0.001 | [5] 0.04 | [6] -0.046 | [7] -0.052 | [8] 0.031 | [9] -0.041 | [10] -0.052 | [11] 0.042 | [12] 0.177 | [13] -0.061 | [14] 0.003 | [15] 0 | [16] 0.026 | [17] -0.046 | [18] -0.053 | [19] 0.074 | [20] 0.012

DERA (UniProt Q9Y315)
inactive: [1] -0.04 | [2] 0 | [3] -0.001 | [4] -0.018 | [5] -0.003 | [6] -0.033 | [7] 0.03 | [8] 0.11 | [9] -0.006 | [10] 0.024 | [11] 0.058 | [12] 0.083 | [13] -0.051 | [14] 0.028 | [15] 0.014 | [16] 0.008 | [17] -0.004 | [18] -0.037 | [19] -0.035 | [20] -0.024

DDT (UniProt P30046)
inactive: [1] -0.058 | [2] 0.004 | [3] 0.014 | [4] -0.033 | [5] -0.051 | [6] -0.037 | [7] -0.018 | [8] -0.046 | [9] -0.014 | [10] 0.003 | [11] -0.002 | [12] 0.025 | [13] -0.026 | [14] 0.143 | [15] 0.032 | [16] -0.017 | [17] 0.098 | [18] -0.005 | [19] 0.009 | [20] -0.003

DENR (UniProt O43583)
inactive: [1] -0.009 | [2] -0.014 | [3] -0.042 | [4] 0.021 | [5] -0.018 | [6] -0.022 | [7] -0.143 | [8] 0.085 | [9] -0.048 | [10] 0.008 | [11] -0.003 | [12] 0.127 | [13] -0.041 | [14] 0.012 | [15] 0.025 | [16] -0.055 | [17] -0.056 | [18] 0.019 | [19] -0.026 | [20] -0.033

DDHD2 (UniProt O94830)
inactive: [1] -0.058 | [2] 0.037 | [3] 0.029 | [4] 0.027 | [5] -0.018 | [6] -0.02 | [7] 0 | [8] -0.032 | [9] -0.029 | [10] 0.017 | [11] -0.051 | [12] 0.01 | [13] -0.009 | [14] 0.045 | [15] -0.017 | [16] -0.077 | [17] 0.029 | [18] -0.036 | [19] -0.033 | [20] -0.129

DDX49 (UniProt Q9Y6V7)
inactive: [1] 0.063 | [2] -0.044 | [3] -0.082 | [4] -0.056 | [5] 0.145 | [6] 0.007 | [7] 0 | [8] 0.059 | [9] -0.001 | [10] -0.074 | [11] 0.157 | [12] 0.222 | [13] -0.003 | [14] -0.013 | [15] 0.018 | [16] -0.009 | [17] -0.051 | [18] -0.06 | [19] 0.059 | [20] 0.136

DGKZ (UniProt Q13574)
inactive: [1] 0.068 | [2] 0.023 | [3] -0.051 | [4] 0 | [5] 0.031 | [6] -0.003 | [7] -0.034 | [8] -0.016 | [9] 0.084 | [10] -0.029 | [11] 0.014 | [12] -0.038 | [13] 0.005 | [14] 0.083 | [15] 0.003 | [16] 0.087 | [17] 0.083 | [18] 0.004 | [19] 0.043 | [20] 0.065

DERL1 (UniProt Q9BUN8)
inactive: [1] -0.072 | [2] -0.006 | [3] -0.019 | [4] 0 | [5] -0.065 | [6] -0.054 | [7] -0.029 | [8] 0.003 | [9] 0.024 | [10] 0.094 | [11] 0.023 | [12] 0.039 | [13] 0.008 | [14] 0.109 | [15] 0.059 | [16] -0.051 | [17] 0.016 | [18] -0.031 | [19] -0.021 | [20] 0.142

Two consecutive records already listed:
DGKZ (UniProt Q13574)
inactive: [1] 0.068 | [2] 0.023 | [3] -0.051 | [4] 0 | [5] 0.031 | [6] -0.003 | [7] -0.034 | [8] -0.016 | [9] 0.084 | [10] -0.029 | [11] 0.014 | [12] -0.038 | [13] 0.005 | [14] 0.083 | [15] 0.003 | [16] 0.087 | [17] 0.083 | [18] 0.004 | [19] 0.043 | [20] 0.065

DERL1 (UniProt Q9BUN8)
inactive: [1] -0.072 | [2] -0.006 | [3] -0.019 | [4] 0 | [5] -0.065 | [6] -0.054 | [7] -0.029 | [8] 0.003 | [9] 0.024 | [10] 0.094 | [11] 0.023 | [12] 0.039 | [13] 0.008 | [14] 0.109 | [15] 0.059 | [16] -0.051 | [17] 0.016 | [18] -0.031 | [19] -0.021 | [20] 0.142

Continued.

DIABLO (UniProt Q9NR28)
inactive: [1] 0 | [2] 0.033 | [3] -0.009 | [4] 0.013 | [5] -0.095 | [6] 0.093 | [7] 0.006 | [8] -0.036 | [9] -0.007 | [10] 0.002 | [11] 0.031 | [12] 0.024 | [13] -0.04 | [14] 0.021 | [15] 0.029 | [16] 0.019 | [17] -0.003 | [18] -0.006 | [19] -0.063 | [20] 0.14
